For one molecule, binding results are on record in article PMC11336944.

This test deals with PRPF8 (mouse (endogenous in testis)) (UniProt Q99PV0). The test can be described thus: co-IP; PRPF8 antibody immunoprecipitation from sorted germ cells of control mice (for SLU7 also of Cwf19l2-SKO mice), immunoblotting; IgG as negative control. A general note: A western blot detects proteins with antibodies after separation by electrophoresis.

Results are given in words; binding and its absence hold for the method and conditions named. In cells and extracts the contact can be indirect. Some entries that bind do so weakly or less than the wild type.

B1: SLU7 (protein, UniProt Q8BHJ9 1-585)
chain: MSAAAVDPVSATPMTGSKEMSLEEPKKMTREDWRKKKELEEQRKLGNAPAEVDEEGKDINPHIPQYISSVPWYIDPSKRPTLKHQRPQPEKQKQFSSSGEWYKRGVKENSITTKYRKGACENCGAMTHKRKDCFERPRRVGAKFTGTNIAPDEHVQPQLMFDYDGKRDRWNGYNPEEHMKIVEEYAKVDLAKRTLKAQKLQEELASGKLVEQANSPKHQWGEEEPNSQMEKDHNSEDEDEDKYADDIDMPGQNFDSKRRITVRNLRIREDIAKYLRNLDPNSAYYDPKTRAMRENPYANAGKNPDEVSYAGDNFVRYTGDTISMAQTQLFAWEAYDKGSEVHLQADPTKLELLYKSFKVKKEDFKEQQKESILEKYGGQEHLDAPPAELLLAQTEDYVEYSRHGTVIKGQERAVACSKYEEDVKINNHTHIWGSYWKEGRWGYKCCHSFFKYSYCTGEAGKESVNSEECIITGATAEESVKKPQALLELHQEKLKEEKKKKKKKKKHRKSSSDSDDEERKQEKLKKALNAEEARLLHVKEIMQIDERKRPYNSIYETREPTEEEMEAYRMKRQRPDDPMASFLGQ
For the molecule B1, the binding entry was “binds”.
